In the supplement of paper PMC10849652:
The other results are listed elsewhere or left out.

By UniProt entry, the sequences of proteins in these tests, tags left out. Where a name states a change or a piece, a line headed by the entry shows the natural chain unless it says otherwise.
UniProt P42285: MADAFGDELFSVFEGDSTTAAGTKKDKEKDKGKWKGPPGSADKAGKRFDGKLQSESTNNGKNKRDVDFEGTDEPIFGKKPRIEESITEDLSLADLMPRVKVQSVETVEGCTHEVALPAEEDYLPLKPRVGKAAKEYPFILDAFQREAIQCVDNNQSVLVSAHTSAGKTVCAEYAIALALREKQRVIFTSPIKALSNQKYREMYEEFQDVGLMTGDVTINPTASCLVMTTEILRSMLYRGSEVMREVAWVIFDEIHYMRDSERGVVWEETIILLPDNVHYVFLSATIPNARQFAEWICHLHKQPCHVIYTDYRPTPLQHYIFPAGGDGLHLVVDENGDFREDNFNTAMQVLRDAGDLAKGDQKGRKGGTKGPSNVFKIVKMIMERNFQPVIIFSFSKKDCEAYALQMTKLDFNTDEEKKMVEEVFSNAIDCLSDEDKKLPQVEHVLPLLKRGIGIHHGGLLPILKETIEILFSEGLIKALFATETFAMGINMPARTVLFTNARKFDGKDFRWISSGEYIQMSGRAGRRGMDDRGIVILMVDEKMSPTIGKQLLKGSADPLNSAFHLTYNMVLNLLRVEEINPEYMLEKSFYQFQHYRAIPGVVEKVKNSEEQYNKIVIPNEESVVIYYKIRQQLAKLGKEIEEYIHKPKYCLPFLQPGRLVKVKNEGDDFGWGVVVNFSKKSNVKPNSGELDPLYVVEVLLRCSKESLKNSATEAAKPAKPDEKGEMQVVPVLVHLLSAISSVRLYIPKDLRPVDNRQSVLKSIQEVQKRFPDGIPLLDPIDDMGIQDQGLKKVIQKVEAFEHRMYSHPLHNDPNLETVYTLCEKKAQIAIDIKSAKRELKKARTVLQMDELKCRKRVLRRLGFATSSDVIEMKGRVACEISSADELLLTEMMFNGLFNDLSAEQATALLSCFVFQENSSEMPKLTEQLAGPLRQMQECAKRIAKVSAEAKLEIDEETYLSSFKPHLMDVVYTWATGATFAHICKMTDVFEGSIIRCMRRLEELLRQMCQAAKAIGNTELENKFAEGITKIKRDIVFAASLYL
UniProt Q68DK7: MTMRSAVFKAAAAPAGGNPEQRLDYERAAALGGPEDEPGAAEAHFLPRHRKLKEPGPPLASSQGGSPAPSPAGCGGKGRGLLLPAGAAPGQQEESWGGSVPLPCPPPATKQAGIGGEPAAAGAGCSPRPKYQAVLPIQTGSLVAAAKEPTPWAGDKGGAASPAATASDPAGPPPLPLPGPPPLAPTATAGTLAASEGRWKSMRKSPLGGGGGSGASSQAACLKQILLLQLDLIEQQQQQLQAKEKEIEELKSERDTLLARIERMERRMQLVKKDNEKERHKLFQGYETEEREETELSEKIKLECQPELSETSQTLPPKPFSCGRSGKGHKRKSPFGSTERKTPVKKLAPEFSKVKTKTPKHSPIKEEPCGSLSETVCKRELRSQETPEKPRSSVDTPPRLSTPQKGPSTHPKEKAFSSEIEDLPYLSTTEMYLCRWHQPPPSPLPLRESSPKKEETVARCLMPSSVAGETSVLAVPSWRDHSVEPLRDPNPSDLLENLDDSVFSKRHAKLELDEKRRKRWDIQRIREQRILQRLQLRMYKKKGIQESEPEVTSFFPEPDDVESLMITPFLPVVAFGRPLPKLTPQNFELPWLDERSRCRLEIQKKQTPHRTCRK
UniProt Q6P444: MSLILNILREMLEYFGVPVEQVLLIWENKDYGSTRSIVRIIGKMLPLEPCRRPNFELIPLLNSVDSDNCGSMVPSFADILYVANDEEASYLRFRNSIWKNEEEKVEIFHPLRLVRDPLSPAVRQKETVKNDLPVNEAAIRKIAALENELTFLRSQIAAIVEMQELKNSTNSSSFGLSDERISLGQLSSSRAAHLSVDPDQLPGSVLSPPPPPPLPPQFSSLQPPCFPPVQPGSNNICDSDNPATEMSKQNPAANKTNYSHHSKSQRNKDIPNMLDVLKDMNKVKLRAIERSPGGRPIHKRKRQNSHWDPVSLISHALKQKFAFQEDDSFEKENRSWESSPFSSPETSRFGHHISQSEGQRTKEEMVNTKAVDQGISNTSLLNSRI
UniProt P58546, whole entry, looked up: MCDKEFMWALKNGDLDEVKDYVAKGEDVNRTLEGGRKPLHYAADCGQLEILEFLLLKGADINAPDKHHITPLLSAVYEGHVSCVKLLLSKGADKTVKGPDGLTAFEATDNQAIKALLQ
UniProt Q9BUK6: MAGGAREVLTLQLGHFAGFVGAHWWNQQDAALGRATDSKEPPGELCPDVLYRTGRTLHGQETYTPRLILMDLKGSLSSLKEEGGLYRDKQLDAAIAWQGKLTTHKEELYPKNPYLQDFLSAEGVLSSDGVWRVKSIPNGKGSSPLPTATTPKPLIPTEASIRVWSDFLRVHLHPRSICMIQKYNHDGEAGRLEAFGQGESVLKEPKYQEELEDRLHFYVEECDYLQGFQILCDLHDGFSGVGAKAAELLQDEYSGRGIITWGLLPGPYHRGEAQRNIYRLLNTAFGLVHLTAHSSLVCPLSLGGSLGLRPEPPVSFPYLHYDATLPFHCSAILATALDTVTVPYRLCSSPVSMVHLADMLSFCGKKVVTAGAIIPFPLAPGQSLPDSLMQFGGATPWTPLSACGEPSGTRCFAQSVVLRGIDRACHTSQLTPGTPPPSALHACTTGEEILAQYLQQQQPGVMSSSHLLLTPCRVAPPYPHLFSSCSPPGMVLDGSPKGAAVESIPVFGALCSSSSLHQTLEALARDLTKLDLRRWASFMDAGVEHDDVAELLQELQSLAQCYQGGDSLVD
UniProt Q9UDX5: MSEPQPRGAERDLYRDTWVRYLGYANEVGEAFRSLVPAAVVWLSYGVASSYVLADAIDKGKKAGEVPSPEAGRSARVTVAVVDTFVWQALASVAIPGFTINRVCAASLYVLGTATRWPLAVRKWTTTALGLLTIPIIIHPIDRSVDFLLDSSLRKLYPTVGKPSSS
UniProt P03886, whole entry, looked up: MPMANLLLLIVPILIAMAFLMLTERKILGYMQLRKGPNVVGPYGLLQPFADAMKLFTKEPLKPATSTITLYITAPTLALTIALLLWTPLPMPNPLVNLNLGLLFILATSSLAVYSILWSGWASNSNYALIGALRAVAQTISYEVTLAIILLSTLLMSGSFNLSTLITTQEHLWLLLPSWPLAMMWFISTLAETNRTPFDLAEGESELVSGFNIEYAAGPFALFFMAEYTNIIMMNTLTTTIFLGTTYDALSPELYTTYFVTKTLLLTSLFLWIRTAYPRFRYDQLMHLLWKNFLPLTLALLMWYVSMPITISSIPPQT
UniProt Q86UE4: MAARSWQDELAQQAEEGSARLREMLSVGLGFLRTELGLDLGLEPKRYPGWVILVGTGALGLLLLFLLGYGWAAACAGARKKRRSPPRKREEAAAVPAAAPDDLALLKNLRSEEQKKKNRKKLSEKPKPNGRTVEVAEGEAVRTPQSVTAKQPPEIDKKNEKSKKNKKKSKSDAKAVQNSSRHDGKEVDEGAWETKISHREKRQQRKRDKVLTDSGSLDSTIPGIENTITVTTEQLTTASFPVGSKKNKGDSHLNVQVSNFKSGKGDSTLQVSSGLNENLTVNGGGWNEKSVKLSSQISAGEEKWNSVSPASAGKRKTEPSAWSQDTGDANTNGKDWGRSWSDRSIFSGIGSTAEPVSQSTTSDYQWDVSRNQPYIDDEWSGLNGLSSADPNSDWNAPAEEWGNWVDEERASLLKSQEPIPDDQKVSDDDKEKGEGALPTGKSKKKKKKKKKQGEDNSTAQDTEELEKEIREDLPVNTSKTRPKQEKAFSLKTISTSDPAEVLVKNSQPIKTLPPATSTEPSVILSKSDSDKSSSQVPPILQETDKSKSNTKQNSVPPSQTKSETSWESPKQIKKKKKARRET
UniProt Q8NCE2: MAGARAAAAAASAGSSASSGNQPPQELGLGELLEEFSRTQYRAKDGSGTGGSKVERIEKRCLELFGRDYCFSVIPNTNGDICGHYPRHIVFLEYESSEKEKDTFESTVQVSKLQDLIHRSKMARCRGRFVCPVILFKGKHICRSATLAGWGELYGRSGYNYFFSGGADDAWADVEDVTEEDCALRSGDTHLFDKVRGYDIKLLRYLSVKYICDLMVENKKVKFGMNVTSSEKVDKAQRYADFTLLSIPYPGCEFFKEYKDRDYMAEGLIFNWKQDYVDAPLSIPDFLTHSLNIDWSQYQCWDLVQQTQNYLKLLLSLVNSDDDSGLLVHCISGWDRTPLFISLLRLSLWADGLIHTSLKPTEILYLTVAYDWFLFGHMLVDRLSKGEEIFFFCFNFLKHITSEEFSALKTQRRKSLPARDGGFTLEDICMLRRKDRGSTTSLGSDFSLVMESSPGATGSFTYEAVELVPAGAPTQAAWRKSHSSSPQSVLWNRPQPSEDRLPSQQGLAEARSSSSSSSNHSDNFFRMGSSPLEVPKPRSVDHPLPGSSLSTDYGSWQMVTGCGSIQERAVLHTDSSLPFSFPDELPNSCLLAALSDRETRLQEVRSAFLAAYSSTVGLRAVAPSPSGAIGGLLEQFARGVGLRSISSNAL
UniProt P00846: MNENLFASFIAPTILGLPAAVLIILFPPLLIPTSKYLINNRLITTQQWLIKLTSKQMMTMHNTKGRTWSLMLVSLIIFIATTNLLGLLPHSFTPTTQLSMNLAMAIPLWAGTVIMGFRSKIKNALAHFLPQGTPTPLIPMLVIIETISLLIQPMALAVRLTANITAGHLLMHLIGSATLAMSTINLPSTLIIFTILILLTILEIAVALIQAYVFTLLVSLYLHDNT
UniProt P49914: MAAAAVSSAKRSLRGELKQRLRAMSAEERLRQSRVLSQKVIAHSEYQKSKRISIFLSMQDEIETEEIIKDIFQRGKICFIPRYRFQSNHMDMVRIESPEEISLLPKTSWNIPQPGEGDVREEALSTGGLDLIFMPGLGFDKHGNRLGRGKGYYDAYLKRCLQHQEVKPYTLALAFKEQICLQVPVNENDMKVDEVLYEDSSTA
UniProt Q9UGC7: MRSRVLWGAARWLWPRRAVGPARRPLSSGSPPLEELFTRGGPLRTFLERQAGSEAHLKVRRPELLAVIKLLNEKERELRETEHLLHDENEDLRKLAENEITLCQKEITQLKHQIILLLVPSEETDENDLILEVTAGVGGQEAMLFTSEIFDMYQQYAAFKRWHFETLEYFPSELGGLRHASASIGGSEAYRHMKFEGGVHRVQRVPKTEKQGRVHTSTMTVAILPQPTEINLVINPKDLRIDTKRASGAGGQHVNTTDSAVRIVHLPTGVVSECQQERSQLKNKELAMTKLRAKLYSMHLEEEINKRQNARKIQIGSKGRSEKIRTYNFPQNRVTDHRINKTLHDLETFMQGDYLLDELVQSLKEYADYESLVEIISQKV
MTHFD1, A0A384N5Y3, UniProt A0A384N5Y3, whole entry, looked up: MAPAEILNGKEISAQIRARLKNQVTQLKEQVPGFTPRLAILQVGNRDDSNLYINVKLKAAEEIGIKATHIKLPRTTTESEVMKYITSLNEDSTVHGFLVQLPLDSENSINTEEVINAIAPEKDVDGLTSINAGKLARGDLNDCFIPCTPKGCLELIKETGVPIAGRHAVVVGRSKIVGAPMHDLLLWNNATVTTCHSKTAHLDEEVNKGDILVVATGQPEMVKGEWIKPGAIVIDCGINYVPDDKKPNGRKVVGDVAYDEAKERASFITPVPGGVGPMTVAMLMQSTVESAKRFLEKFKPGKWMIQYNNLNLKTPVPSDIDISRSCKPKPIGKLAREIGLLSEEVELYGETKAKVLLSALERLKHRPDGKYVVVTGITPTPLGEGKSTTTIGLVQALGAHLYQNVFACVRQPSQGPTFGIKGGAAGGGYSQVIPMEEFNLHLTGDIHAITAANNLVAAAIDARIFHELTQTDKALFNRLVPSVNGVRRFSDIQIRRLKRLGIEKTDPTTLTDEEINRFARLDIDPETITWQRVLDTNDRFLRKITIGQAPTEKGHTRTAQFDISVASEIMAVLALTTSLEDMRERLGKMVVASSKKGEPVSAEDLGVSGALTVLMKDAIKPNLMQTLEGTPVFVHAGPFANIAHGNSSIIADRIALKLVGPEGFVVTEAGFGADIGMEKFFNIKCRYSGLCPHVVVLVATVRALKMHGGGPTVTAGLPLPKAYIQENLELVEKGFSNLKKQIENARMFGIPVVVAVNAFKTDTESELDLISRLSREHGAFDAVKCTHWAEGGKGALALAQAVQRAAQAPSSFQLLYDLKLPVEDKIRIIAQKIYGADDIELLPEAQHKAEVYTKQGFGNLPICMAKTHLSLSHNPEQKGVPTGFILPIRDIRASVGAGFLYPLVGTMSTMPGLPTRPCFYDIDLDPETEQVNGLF
UniProt Q96DH6: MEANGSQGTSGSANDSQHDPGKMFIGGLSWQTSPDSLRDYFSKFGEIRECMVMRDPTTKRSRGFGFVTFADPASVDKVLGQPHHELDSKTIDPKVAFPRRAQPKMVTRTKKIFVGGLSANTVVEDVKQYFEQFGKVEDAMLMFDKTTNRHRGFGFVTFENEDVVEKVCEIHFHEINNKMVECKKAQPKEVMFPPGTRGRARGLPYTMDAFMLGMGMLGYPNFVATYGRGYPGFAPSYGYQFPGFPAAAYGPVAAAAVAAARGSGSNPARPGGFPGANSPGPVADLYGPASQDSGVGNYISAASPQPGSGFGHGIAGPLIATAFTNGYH

Assays:
Assay in all cases: log2 fold change, soluble protein after heating vs DMSO (PISA); higher = thermal stabilisation; K562 lysate, 10 uM; active = over 0.2 and 3.5 SD of the protein, either way, in both replicates (recomputed)
[1] = compound: NCC(=O)Nc1ccc(-n2nc(C(F)(F)F)cc2-c2ccc3c(ccc4ccccc43)c2)cc1
Summary of the method: (§1)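 To prepare the extract, K562 pellets were dounce-homogenised in PBS pH 7.4 with 1 mM MgCl2, giving crude material at 1 mg/mL protein. This was treated with 10 μM compound for 30 min, then heated in aliquots for 3 min over 48°C-58°C before pooling and addition of NP-40 to 0.5% at 4°C. Centrifugation at 21,000xg for 90 min left soluble protein in the supernatant, which TMTpro 16plex LC-MS/MS quantified with equalised channel sums. Results are log-two fold changes in thermal stability compared with solvent controls, from duplicates.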

[2] = compound: O=C(CCCCCCC(=O)Nc1ccccc1)NO [vorinostat]
Summary of the method: as §1

[3] = compound: O=C(O)c1ccc2c(c1)nc(Nc1cccc(Cl)c1)c1ccncc12 [silmitasertib]
Summary of the method: as §1

[4] = compound: O=C1NC(=O)C(c2cnc3ccccn23)=C1c1cn2c3c(cc(F)cc13)CN(C(=O)N1CCCCC1)CC2
Summary of the method: as §1

[5] = compound: c1cn2cc(-c3ccc4cn[nH]c4c3)nc(Nc3ccc(N4CCOCC4)cc3)c2n1 [entospletinib]
Summary of the method: as §1

Measured: log2 fold change

MRPL3 (UniProt P09001)
inactive: [1] 0.037 | [2] -0.202 | [3] 0.081 | [4] 0.014 | [5] 0.114

MRPS31 (UniProt Q92665)
inactive: [1] 0.058 | [2] 0.021 | [3] -0.046 | [4] -0.001 | [5] 0

MSL2 (UniProt Q9HCI7)
inactive: [1] 0.113 | [2] -0.106 | [3] 0.081 | [4] 0.041 | [5] -0.041

MTREX (UniProt P42285)
inactive: [1] 0.011 | [2] 0.027 | [3] 0.016 | [4] -0.016 | [5] 0.003

MT-ND5 (UniProt P03915)
inactive: [1] 0.063 | [2] 0.136 | [3] -0.021 | [4] 0.03 | [5] 0.004

MSL1 (UniProt Q68DK7)
inactive: [1] 0.1 | [2] 0.162 | [3] -0.012 | [4] -0.042 | [5] -0.058

MRPS7 (UniProt Q9Y2R9)
inactive: [1] 0.002 | [2] -0.031 | [3] 0.021 | [4] 0.029 | [5] 0.008

MTFR2 (UniProt Q6P444)
inactive: [1] 0.05 | [2] -0.197 | [3] 0.007 | [4] -0.032 | [5] 0.043

MSH2 (UniProt P43246)
active: [2] -0.287
inactive: [1] 0.006 | [3] 0.027 | [4] -0.022 | [5] 0.034

MRRF (UniProt Q96E11)
inactive: [1] 0.037 | [2] 0.116 | [3] -0.022 | [4] 0.009 | [5] -0.027

Reprinted from above (3 entries):
MSL1 (UniProt Q68DK7)
inactive: [1] 0.1 | [2] 0.162 | [3] -0.012 | [4] -0.042 | [5] -0.058

MRPS7 (UniProt Q9Y2R9)
inactive: [1] 0.002 | [2] -0.031 | [3] 0.021 | [4] 0.029 | [5] 0.008

MTFR2 (UniProt Q6P444)
inactive: [1] 0.05 | [2] -0.197 | [3] 0.007 | [4] -0.032 | [5] 0.043

Going on with the list.

MRPL42 (UniProt Q9Y6G3)
inactive: [1] 0.057 | [2] 0.043 | [3] -0.221 | [4] -0.024 | [5] 0.207

MRPL37 (UniProt Q9BZE1)
inactive: [1] -0.023 | [2] -0.079 | [3] 0.055 | [4] 0.056 | [5] 0.032

MTX1 (UniProt Q13505)
inactive: [1] 0.034 | [2] 0.016 | [3] -0.03 | [4] -0.011 | [5] 0.023

MRPS23 (UniProt Q9Y3D9)
inactive: [1] 0.008 | [2] -0.13 | [3] 0.018 | [4] -0.028 | [5] -0.001

MTPN (UniProt P58546)
inactive: [1] -0.098 | [2] 0.088 | [3] -0.011 | [4] 0.032 | [5] -0.062

MSTO1 (UniProt Q9BUK6)
inactive: [1] 0.017 | [2] -0.089 | [3] 0.09 | [4] 0.021 | [5] -0.004

MTRR isoform 1 (UniProt Q9UBK8)
inactive: [1] 0.052 | [2] -0.036 | [3] -0.001 | [4] 0.044 | [5] 0.021

MRPL24 (UniProt Q96A35)
inactive: [1] -0.042 | [2] -0.011 | [3] 0.071 | [4] 0.03 | [5] -0.025

MTR (UniProt Q99707)
inactive: [1] 0.024 | [2] -0.148 | [3] 0.039 | [4] 0.01 | [5] -0.005

MTFP1 (UniProt Q9UDX5)
inactive: [1] -0.04 | [2] 0.102 | [3] -0.007 | [4] 0.02 | [5] -0.009

MRPL32 (UniProt Q9BYC8)
inactive: [1] 0.031 | [2] -0.007 | [3] 0.028 | [4] 0.034 | [5] -0.019

MT-ND4 (UniProt P03905)
inactive: [1] -0.028 | [2] 0.12 | [3] 0.037 | [4] 0.112 | [5] -0.039

MRPL48 (UniProt Q96GC5)
inactive: [1] -0.002 | [2] -0.061 | [3] 0.014 | [4] 0.01 | [5] -0.004

MRPL58 (UniProt Q14197)
inactive: [1] 0.02 | [2] -0.053 | [3] -0.008 | [4] 0.038 | [5] 0.041

MTMR9 (UniProt Q96QG7)
inactive: [1] -0.062 | [2] -0.13 | [3] 0.126 | [4] -0.077 | [5] -0.038

MRPL46 (UniProt Q9H2W6)
inactive: [1] 0.021 | [2] -0.21 | [3] 0.155 | [4] 0.036 | [5] -0.049

MTOR (UniProt P42345)
active: [2] -0.305
inactive: [1] -0.035 | [3] 0.146 | [4] -0.013 | [5] -0.024

MRTFA (UniProt Q969V6)
inactive: [1] -0.124 | [2] -0.202 | [3] 0.1 | [4] -0.04 | [5] -0.006

MTMR6 (UniProt Q9Y217)
active: [2] -0.276
inactive: [1] -0.018 | [3] 0.027 | [4] -0.027 | [5] 0.003

MRPL33 (UniProt O75394)
inactive: [1] 0.195 | [2] 0.242 | [3] -0.015 | [4] 0.194 | [5] -0.064

MRPL44 (UniProt Q9H9J2)
inactive: [1] -0.017 | [2] -0.017 | [3] 0.004 | [4] 0.053 | [5] 0.019

MT-ND1 (UniProt P03886)
inactive: [1] 0.002 | [2] 0.072 | [3] 0.033 | [4] 0.015 | [5] 0.121

MTDH (UniProt Q86UE4)
inactive: [1] 0.028 | [2] 0.169 | [3] -0.008 | [4] 0.009 | [5] -0.014

MTMR14 (UniProt Q8NCE2)
inactive: [1] 0.005 | [2] -0.092 | [3] 0.064 | [4] -0.036 | [5] 0

MSH3 (UniProt P20585)
inactive: [1] 0.044 | [3] 0.055 | [4] -0.017 | [5] 0.025
active: [2] -0.316

MTRES1 (UniProt Q9P0P8)
inactive: [1] -0.128 | [2] -0.19 | [3] 0.115 | [4] 0.192 | [5] 0.015

MRPL54 (UniProt Q6P161)
inactive: [1] 0 | [2] -0.003 | [3] 0.024 | [4] -0.041 | [5] 0

MTX2 (UniProt O75431)
inactive: [1] -0.042 | [2] 0.045 | [3] 0.017 | [4] -0.029 | [5] -0.042

MRPS24 (UniProt Q96EL2)
inactive: [1] 0.03 | [2] -0.148 | [3] 0.003 | [4] -0.097 | [5] -0.021

MSH6 (UniProt P52701)
inactive: [1] 0.008 | [3] 0.063 | [4] 0.016 | [5] -0.012
active: [2] -0.287

MT-ATP6 (UniProt P00846)
inactive: [1] 0.023 | [2] 0.126 | [3] 0.118 | [4] -0.029 | [5] 0.016

MRPL51 (UniProt Q4U2R6)
inactive: [1] -0.03 | [2] -0.067 | [3] -0.054 | [4] 0.121 | [5] 0.003

MTHFS (UniProt P49914)
inactive: [1] 0.031 | [2] -0.093 | [3] 0.05 | [4] -0.045 | [5] 0.009

MTMR1 (UniProt Q13613)
inactive: [1] -0.05 | [2] -0.188 | [3] 0.037 | [4] -0.008 | [5] 0.006

MRPL40 (UniProt Q9NQ50)
inactive: [1] 0.07 | [2] 0.105 | [3] -0.02 | [4] -0.041 | [5] -0.05

MRPS26 (UniProt Q9BYN8)
inactive: [1] 0.023 | [2] 0.132 | [3] -0.194 | [4] -0.109 | [5] 0

MRPS30 (UniProt Q9NP92)
inactive: [1] -0.01 | [2] -0.319 | [3] 0.163 | [4] 0.028 | [5] -0.046

MRPS2 (UniProt Q9Y399)
inactive: [1] -0.006 | [2] 0.008 | [3] 0.115 | [4] -0.026 | [5] 0.015

MRPL49 (UniProt Q13405)
inactive: [1] 0.003 | [2] 0.127 | [3] -0.019 | [4] 0.02 | [5] -0.083

MRTFB isoform 5 (UniProt Q9ULH7)
inactive: [1] 0.017 | [2] 0.026 | [3] -0.004 | [4] 0.035 | [5] -0.024

MTRF1L (UniProt Q9UGC7)
inactive: [1] 0.078 | [2] 0.126 | [3] -0.027 | [4] 0.014 | [5] 0.033

MTHFD1, A0A384N5Y3
inactive: [1] 0.036 | [3] 0.056 | [4] 0.028 | [5] 0.026
active: [2] -0.243

MSI2 (UniProt Q96DH6)
inactive: [1] 0.053 | [2] -0.046 | [3] -0.021 | [4] -0.052 | [5] 0.033

MTHFR isoform 2 (UniProt P42898)
inactive: [1] 0.011 | [2] -0.11 | [3] 0.011 | [4] -0.024 | [5] -0.008
